The results in this text go back to publication PMC6786517.

The chains behind the UniProt entries cited, without tags or fusion partners. Where a name states a change or a piece, a line headed by the entry shows the natural chain unless it says otherwise.
UniProt Q8BWT5: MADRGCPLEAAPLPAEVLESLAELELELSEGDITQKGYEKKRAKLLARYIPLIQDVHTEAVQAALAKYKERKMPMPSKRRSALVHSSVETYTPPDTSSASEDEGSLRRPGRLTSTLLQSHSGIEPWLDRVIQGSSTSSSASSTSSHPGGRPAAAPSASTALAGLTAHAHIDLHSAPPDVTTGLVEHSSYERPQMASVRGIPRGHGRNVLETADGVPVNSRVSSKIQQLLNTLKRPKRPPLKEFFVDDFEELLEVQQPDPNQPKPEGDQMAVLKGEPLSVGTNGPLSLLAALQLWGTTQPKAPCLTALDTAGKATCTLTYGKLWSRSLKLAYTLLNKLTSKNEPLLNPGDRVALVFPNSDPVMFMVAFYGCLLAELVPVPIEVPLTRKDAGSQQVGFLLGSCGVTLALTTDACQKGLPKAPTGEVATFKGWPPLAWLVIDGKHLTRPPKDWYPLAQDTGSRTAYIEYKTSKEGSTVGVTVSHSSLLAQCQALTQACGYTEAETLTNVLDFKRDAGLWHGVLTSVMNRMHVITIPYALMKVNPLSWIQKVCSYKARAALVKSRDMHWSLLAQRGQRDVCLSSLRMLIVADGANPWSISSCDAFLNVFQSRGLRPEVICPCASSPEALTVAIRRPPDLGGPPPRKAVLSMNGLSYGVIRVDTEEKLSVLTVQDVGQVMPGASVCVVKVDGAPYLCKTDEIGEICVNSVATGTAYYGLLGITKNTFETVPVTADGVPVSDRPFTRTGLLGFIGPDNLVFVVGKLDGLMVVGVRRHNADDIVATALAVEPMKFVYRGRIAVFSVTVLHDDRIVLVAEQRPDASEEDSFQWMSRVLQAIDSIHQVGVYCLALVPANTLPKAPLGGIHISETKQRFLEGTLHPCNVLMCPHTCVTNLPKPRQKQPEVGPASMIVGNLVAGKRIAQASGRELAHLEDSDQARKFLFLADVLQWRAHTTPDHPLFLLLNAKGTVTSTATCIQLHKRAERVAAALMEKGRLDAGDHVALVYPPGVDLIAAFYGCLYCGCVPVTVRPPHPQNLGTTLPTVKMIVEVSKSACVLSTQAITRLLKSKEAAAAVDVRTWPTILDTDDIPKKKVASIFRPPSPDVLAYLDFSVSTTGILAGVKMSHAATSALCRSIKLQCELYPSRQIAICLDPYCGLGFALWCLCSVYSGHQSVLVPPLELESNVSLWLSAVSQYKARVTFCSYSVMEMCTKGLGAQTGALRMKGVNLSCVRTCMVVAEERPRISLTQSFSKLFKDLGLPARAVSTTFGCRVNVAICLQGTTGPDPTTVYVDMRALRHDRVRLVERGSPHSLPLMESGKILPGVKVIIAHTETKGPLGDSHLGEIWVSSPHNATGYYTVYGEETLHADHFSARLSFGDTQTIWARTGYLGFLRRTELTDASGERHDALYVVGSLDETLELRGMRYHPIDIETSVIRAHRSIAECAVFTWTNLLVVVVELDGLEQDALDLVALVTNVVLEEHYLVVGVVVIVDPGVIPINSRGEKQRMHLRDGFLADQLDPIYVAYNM
UniProt Q60598: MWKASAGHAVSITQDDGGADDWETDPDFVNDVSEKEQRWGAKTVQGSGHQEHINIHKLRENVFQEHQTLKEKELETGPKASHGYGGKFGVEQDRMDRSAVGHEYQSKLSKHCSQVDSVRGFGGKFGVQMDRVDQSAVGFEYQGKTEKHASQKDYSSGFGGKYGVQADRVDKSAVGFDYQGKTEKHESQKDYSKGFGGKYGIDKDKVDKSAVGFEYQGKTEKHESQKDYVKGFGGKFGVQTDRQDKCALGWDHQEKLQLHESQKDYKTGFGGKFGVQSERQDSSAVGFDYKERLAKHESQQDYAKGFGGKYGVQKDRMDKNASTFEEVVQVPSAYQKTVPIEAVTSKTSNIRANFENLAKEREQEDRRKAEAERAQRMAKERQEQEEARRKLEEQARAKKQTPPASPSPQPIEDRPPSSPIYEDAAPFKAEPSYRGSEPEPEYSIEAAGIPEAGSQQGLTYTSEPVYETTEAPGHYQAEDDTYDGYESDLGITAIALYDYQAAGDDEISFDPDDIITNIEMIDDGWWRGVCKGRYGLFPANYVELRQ
UniProt Q4ACU6: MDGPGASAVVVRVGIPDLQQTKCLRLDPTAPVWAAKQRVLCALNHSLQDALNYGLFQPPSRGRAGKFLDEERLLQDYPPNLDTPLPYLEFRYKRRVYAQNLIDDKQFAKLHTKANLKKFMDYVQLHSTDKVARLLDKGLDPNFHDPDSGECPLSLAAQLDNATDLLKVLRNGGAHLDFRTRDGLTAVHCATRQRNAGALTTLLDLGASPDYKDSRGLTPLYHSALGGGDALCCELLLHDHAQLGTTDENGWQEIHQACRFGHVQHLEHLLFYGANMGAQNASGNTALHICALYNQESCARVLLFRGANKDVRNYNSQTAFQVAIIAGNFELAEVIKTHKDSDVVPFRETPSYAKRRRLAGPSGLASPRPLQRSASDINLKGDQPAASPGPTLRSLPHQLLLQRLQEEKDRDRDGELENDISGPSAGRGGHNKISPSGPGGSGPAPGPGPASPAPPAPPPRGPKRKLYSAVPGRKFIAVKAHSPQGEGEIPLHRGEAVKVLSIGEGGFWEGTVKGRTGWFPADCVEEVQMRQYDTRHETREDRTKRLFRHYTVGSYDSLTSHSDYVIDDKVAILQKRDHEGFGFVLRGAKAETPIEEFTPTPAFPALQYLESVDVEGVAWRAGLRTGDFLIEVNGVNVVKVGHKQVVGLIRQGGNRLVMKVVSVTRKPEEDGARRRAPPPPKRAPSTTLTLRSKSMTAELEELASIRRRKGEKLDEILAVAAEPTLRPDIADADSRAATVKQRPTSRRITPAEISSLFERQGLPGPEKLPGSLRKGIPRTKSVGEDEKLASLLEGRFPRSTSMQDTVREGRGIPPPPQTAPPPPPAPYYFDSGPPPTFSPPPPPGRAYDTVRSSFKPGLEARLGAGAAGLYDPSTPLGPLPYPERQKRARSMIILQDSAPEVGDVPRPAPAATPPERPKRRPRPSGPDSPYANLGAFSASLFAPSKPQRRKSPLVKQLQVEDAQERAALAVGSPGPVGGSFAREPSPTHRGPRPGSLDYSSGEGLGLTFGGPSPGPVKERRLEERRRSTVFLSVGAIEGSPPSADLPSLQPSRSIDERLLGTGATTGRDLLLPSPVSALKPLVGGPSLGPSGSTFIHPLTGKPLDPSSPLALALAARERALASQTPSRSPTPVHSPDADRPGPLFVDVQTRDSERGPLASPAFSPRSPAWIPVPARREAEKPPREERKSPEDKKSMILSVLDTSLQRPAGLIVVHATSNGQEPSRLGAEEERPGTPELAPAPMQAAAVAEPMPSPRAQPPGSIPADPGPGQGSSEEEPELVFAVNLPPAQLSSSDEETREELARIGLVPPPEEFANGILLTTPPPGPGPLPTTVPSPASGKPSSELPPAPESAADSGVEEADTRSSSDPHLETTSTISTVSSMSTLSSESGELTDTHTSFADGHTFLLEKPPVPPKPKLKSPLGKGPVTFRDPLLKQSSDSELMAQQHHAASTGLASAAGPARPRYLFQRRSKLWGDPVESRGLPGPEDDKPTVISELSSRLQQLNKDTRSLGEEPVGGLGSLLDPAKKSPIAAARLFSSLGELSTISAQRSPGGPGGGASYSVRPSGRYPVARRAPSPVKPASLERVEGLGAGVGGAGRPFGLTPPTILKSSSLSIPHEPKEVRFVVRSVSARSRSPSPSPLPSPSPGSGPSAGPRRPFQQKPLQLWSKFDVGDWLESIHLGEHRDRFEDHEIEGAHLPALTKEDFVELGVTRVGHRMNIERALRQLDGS

The target in one test is His-tagged DIP2A(1-320) (UniProt Q8BWT5). Nature of the test: pull-down; His-DIP2A1-320 from E. coli on Ni-NTA, incubated with murine cerebral cortex lysate overnight at 4 °C; blot; only the target purified.
Test [1] concerns the target FLAG-tagged N terminus-truncated DIP2A(1-320) (UniProt Q8BWT5). Nature of the test: co-IP; HEK293 cells co-transfected with HA-cortactin and FLAG-tagged full-length or truncated DIP2A; IP with anti-FLAG antibody, blot for HA-cortactin.
Test [2] has as its target GST-tagged DIP2A(1-320) with both PXXP motifs mutated (double) (UniProt Q8BWT5). Nature of the test: pull-down; GST-tagged DIP2A1-320, wild type and PXXP mutants, tested for cortactin (Fig 4C and 4D); fusion proteins incubated with cell or brain lysates by the general methods; only the target purified.
The target in test [3] is GST-tagged DIP2A(1-320) P274A/P277A (UniProt Q8BWT5). Described as above.
In the next test the target is GST-tagged DIP2A(1-320) (UniProt Q8BWT5). The description is as above.
For test [4], the target named is GST-tagged DIP2A(1-320) P298A/P301A (UniProt Q8BWT5). Described as above.

No constants are given. Whether binding was seen depends on the method and setting. Binding seen in cells or lysates may run through a third protein. Binding calls can cover weak binding; strength is not graded here.

As for “endogenous cortactin from murine brain lysate (from UniProt Q60598 1-546)”, in the test with His-tagged DIP2A(1-320), the binding result is reported as “binds”.
As for “HA-tagged cortactin (from UniProt Q60598 1-546)”, the binding result in test [1] is listed as “binds”.
As for “endogenous SHANK3 (SH3 and multiple ankyrin repeat domains 3) from murine brain lysate (from UniProt Q4ACU6 1-1730)”, in the test with His-tagged DIP2A(1-320), the binding entry is “binds”.
On to “cortactin of the binding assays of Fig 4B and 4D (construct not stated) (from UniProt Q60598 1-546)”, for which the binding result in test [2] was “binds weakly”; in test [3], “binds”; in the test with GST-tagged DIP2A(1-320), “binds”; in test [4], “binds”.
